We go through 8 compounds from PubChem BioAssay AID2012 (Sanford-Burnham Center for Chemical Genomics, 2009).

This is one part of the list.

For this assay, the target named is Eukaryotic translation initiation factor 4H (Homo sapiens) (UniProt Q15056). Nature of the assay: eIF4H binding inhibition – biochemical, uHTS, fluorescence polarization, translation initiation inhibitor project, primary screen (AID 2012). The following applies: eIF4H fluorescence polarization binding assay; confirmation average; at 20 µM; stronger effect = higher value. (In fluorescence polarisation assays a small probe gives low polarisation when free and higher when bound to something large.)
As a reminder, the inhibition is the relative decrease from the control value, in per cent. `COc1ccc(OP(C)(=O)Nc2ccc(SC(F)(F)F)cc2)cc1` (stereo not drawn): the inhibition was determined as 1%. The result for `CC(C)(C)C(=O)NC(Sc1ccccc1)C(Cl)(Cl)Cl` (stereo not drawn) reads -13.6%; that for `O=[N+]([O-])c1ccc(O)c(/C=N/Nc2ccc([N+](=O)[O-])cc2[N+](=O)[O-])c1`, -3.6%; that for `CC(=O)NC(SC(=S)N(C)C)C(Cl)(Cl)Cl` (stereo not drawn), 79.9%. As for `O=[N+]([O-])c1cc([N+](=O)[O-])c(CCN2CCOCC2)c([N+](=O)[O-])c1`, the figure is 96.6%; as for `O=[N+]([O-])c1cc([N+](=O)[O-])c(-c2ccn[nH]2)s1`, 102%; as for `CCOC(=O)Nc1ccc([As](=O)(O)O)c(O)c1`, 95.4%. For `CS(=O)(=O)c1cc([N+](=O)[O-])c2no[n+]([O-])c2c1`, the inhibition stood at 104%.
